Results deposited as PubChem BioAssay AID1259275 (Sanger Institute, 2017)
Here is a random part of 794 reagents. Over the whole deposit, 13 (1.6%) are marked active. 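Calls mark knock-downs lethal by themselves, not drug synergy; drugs went in a day after transfection, with DMSO as vehicle.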 Unmarked entries are inactive. No viability above 1 is reported: the scale is capped. Not all columns of the deposit are shown. The record does not give: the amount of reagent, the time to read-out.

Aim: 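Kinome and custom colorectal gene library screened for lethal knock-downs and drug partners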 (primary screen)
Cell system: COLO320HSR human colorectal cancer cells
Knock-down reagent: siRNA pool against human genes
Treatment: anchor drug added one day after transfection: BYL719 at 1 µM, cetuximab at 5 µg/ml or trametinib at 10 nM; DMSO as vehicle arm
Read-out: 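Replicate-mean viability versus non-targeting pool control, robust z-score without drug, and per-drug synergy scores for BYL719 at 1 µM, cetuximab at 5 µg/ml and trametinib at 10 nM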
Reading the numbers: robust z-score, siRNA alone: higher = more viable cells; strongly negative means essential; viability, knock-down alone (DMSO): higher = more viable cells
Units: viability, knock-down alone (DMSO) in fraction of control
Rule for the call: 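a gene is called essential when its robust z-score without drug falls below -3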
Calls: active = essential (siRNA alone); inactive = no change (siRNA alone)

{"target gene": "PAK1 (p21 (RAC1) activated kinase 1)", "robust z-score, siRNA alone": 0.209, "viability, knock-down alone (DMSO)": 0.953}
{"target gene": "GRK4 (G protein-coupled receptor kinase 4)", "robust z-score, siRNA alone": 0.251, "viability, knock-down alone (DMSO)": 0.957}
{"target gene": "IRAK1 (interleukin 1 receptor associated kinase 1)", "robust z-score, siRNA alone": 0.0119, "viability, knock-down alone (DMSO)": 0.936}
{"target gene": "STK40 (serine/threonine kinase 40)", "robust z-score, siRNA alone": -0.00454, "viability, knock-down alone (DMSO)": 0.934}
{"target gene": "MELK (maternal embryonic leucine zipper kinase)", "robust z-score, siRNA alone": 0.115, "viability, knock-down alone (DMSO)": 0.945}
{"target gene": "TWF2 (twinfilin actin binding protein 2)", "robust z-score, siRNA alone": 0.726, "viability, knock-down alone (DMSO)": 1}
{"target gene": "PKDCC (protein kinase domain containing, cytoplasmic)", "robust z-score, siRNA alone": 0.423, "viability, knock-down alone (DMSO)": 0.973}
{"target gene": "MAP2K7 (mitogen-activated protein kinase kinase 7)", "robust z-score, siRNA alone": -1.79, "viability, knock-down alone (DMSO)": 0.773}

Next part, starting with the last 2 of the part before.
{"target gene": "PKDCC (protein kinase domain containing, cytoplasmic)", "robust z-score, siRNA alone": 0.423, "viability, knock-down alone (DMSO)": 0.973}
{"target gene": "MAP2K7 (mitogen-activated protein kinase kinase 7)", "robust z-score, siRNA alone": -1.79, "viability, knock-down alone (DMSO)": 0.773}
{"target gene": "NME5 (NME/NM23 family member 5)", "robust z-score, siRNA alone": 0.726, "viability, knock-down alone (DMSO)": 1}
{"target gene": "TRIB2 (tribbles pseudokinase 2)", "robust z-score, siRNA alone": 0.351, "viability, knock-down alone (DMSO)": 0.966}
{"target gene": "CTCF (CCCTC-binding factor)", "robust z-score, siRNA alone": 0.112, "viability, knock-down alone (DMSO)": 0.945}
{"target gene": "PIK3R4 (phosphoinositide-3-kinase regulatory subunit 4)", "robust z-score, siRNA alone": 0.207, "viability, knock-down alone (DMSO)": 0.953}
